Experimental data as given in US4504471A, “Animal growth promotant and method of use for animal growth” (Fujisawa Pharmaceutical Co., Ltd., priority 1982, dated 1985).
Part of at least one peptide drawing is inferred or uncertain, most often the ends. Starred links: 1 amine or outer side, 2 acyl side, 3 side chain; linkers in the order of their positions; H or OH if unused. Non-standard residues stand in square brackets, D forms with d. Residues, ends and D or L forms follow the SMILES beside them. *: point of attachment. d(γGlu) = O=C(O)[C@@H](CCC(=O)[*:2])N[*:1]; Stearoyl = CCCCCCCCCCCCCCCCCC(=O)*

Experiments:
male broiler chickens = assay: Test 3: growth and efficiency of feed utilization of broiler chickens fed Compound 2 or 3; assay type: in vivo, chicken; details: for Average body weight gain: 6 day-old male broiler chickens, feed as in Test 1
piglets (LWD) = assay: Test 4: growth and efficiency of feed utilization of piglets fed compound 2; assay type: in vivo, pig; details: 1 ppm in feed, method of Test 2

**Q.** `CCCCCCCCCCCCCCCCCC(=O)N[C@H](CCC(=O)N[C@@H](CCCCN)C(=O)N[C@H](C)C(=O)O)C(=O)O` [Compound 2] ({Stearoyl-d(γGlu)}-Lys-[dA]-OH) was tested. Which “Average body weight gain, index to the control group” value (shortened to “Average body weight gain, index”) (male broiler chickens; week 0-2) did it give?
**A.** 117%

**Q.** What about the “Efficiency of feed utilization” value (male broiler chickens; week 0-2) of the same compound?
**A.** 1.76

**Q.** And the “Efficiency of feed utilization, index to the control group” value (“Efficiency of feed utilization, index” for short) (male broiler chickens; week 0-2)?
**A.** 93%

**Q.** What about the “Average body weight gain” value (male broiler chickens; week 0-2) of the same compound?
**A.** 391 g

**Q.** And the “Average body weight gain, index” value (male broiler chickens; week 0-4)?
**A.** 109%

**Q.** And the “Efficiency of feed utilization” value (male broiler chickens; week 0-4)?
**A.** 1.94

**Q.** What about the “Efficiency of feed utilization, index” value (male broiler chickens; week 0-4) of the same compound?
**A.** 80%

**Q.** And the “Average body weight gain” value (male broiler chickens; week 0-4)?
**A.** 997 g

**Q.** And the “Average body weight gain, index” value (male broiler chickens; week 0-6)?
**A.** 104%

**Q.** And the “Efficiency of feed utilization” value (male broiler chickens; week 0-6)?
**A.** 2.26

**Q.** And the “Efficiency of feed utilization, index” value (male broiler chickens; week 0-6)?
**A.** 95%

**Q.** What about the “Average body weight gain” value (male broiler chickens; week 0-6) of the same compound?
**A.** 1725 g

**Q.** What about the “Average Final Body Weight Gain” value (piglets (LWD)) of the same compound?
**A.** 29.4 kg

**Q.** What about the “Average Final Body Weight Gain, index to the control group” value (piglets (LWD)) of the same compound?
**A.** 104%

**Q.** What about the “Efficiency of feed utilization” value (piglets (LWD)) of the same compound?
**A.** 2.28

**Q.** What about the “Efficiency of feed utilization, index” value (piglets (LWD)) of the same compound?
**A.** 99%

**Q.** For `C[C@H](NC(=O)[C@@H](C)O)C(=O)N[C@H](CCC(=O)N[C@@H](CCC[C@@H](N)C(=O)O)C(=O)NCC(=O)O)C(=O)O` [Compound 3], which “Average body weight gain, index” value (male broiler chickens; week 0-2) is on record?
**A.** 110%

**Q.** And the “Efficiency of feed utilization” value (male broiler chickens; week 0-2)?
**A.** 2.09

**Q.** What about the “Efficiency of feed utilization, index” value (male broiler chickens; week 0-2) of the same compound?
**A.** 93%

**Q.** And the “Average body weight gain” value (male broiler chickens; week 0-2)?
**A.** 368 g

**Q.** And the “Average body weight gain, index” value (male broiler chickens; week 0-4)?
**A.** 110%

**Q.** And the “Efficiency of feed utilization” value (male broiler chickens; week 0-4)?
**A.** 2.06

**Q.** What about the “Efficiency of feed utilization, index” value (male broiler chickens; week 0-4) of the same compound?
**A.** 85%

**Q.** What about the “Average body weight gain” value (male broiler chickens; week 0-4) of the same compound?
**A.** 1006 g

**Q.** And the “Average body weight gain, index” value (male broiler chickens; week 0-6)?
**A.** 106%

**Q.** What about the “Efficiency of feed utilization” value (male broiler chickens; week 0-6) of the same compound?
**A.** 2.26

**Q.** And the “Efficiency of feed utilization, index” value (male broiler chickens; week 0-6)?
**A.** 95%

**Q.** And the “Average body weight gain” value (male broiler chickens; week 0-6)?
**A.** 1762 g
